This test relates to Mycobacterium tuberculosis. The experiment in a line: Antibacterial activity against Mycobacterium tuberculosis H37Rv by broth microdilution method. The format is functional.

On to `CO[C@H]1/C=C/O[C@@]2(C)Oc3c(C)c(O)c4c(O)c(c(/C=N/N5CCN(C)CC5)c(O)c4c3C2=O)NC(=O)/C(C)=C\C=C\[C@H](C)[C@H](O)[C@@H](C)[C@@H](O)[C@@H](C)[C@H](OC(C)=O)[C@@H]1C` [RIFAMPIN], for which the MIC is at most 0.64 µg/mL.
